Data taken from ChEMBL document CHEMBL3988442, “University of Dundee, Small-Polar-MMV Screening Library” (2021).

Values are the deposited “Percent Effect”, in %. The record does not define 0% and 100%; most values in the screen are far below 50% and negative numbers occur (in some assays of this library far below -100). The compounds are a random part of those screened.

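Whole-cell assay for inhibitors of Mycobacterium tuberculosis growth, labelled Cornell in the record; the read-out is not stated. The concentration is filed as 10 mM, unlikely as a test dose, so the dose is not known. Higher means stronger inhibition (inferred from two other growth screens of the library). Of about 53,000 compounds tested this way, about 900 (1.7%) reached 50% or more in at least one test.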

| # | compound | effect |
|---|---|---|
| 1 | `CC1CCC(NC(=O)CNC2(c3ccc(F)cc3)CCOCC2)CC1` (stereo not drawn) | 3.273 |
| 2 | `[H][C@@]12C[C@H](c3nnc(C)o3)O[C@@]1([H])CCN(Cc1cc(C)on1)C2` | -23.54 |
| 3 | `[H][C@@]12CCN(C[C@@H]1c1cc(-c3ccccc3)nn1C)[C@@H](CNS(C)(=O)=O)C2` | 4.62 |
| 4 | `CC(C)C[C@@H]1N[C@H](C(=O)NC2CCOCC2)Cc2c[nH]c3cccc1c23` | 11.12 |
| 5 | `CC[C@H](C)[C@H](N)C(=O)Nc1nc(-c2cnc(N(C)C)nc2)cs1` | 29.67 |
| 6 | `Cc1ccc(OCCCNC(=O)C(C)Sc2nncn2C)cc1` (stereo not drawn) | -12.29 |
| 7 | `CN(CCCC1CCCO1)S(=O)(=O)NCc1ccccc1` (stereo not drawn) | -9.821 |
| 8 | `CN(C)CC(=O)N1CCOC2(CCCN(c3ncccc3F)C2)C1.O=C(O)C(F)(F)F.O=C(O)C(F)(F)F` (stereo not drawn) | 2.541 |
| 9 | `O=C(CN1CCOC(Cn2cccn2)C1)Nc1nccs1` (stereo not drawn) | -17.94 |
| 10 | `O=C(CNC(=O)C1CC1)NCCOc1cccc(Cl)c1Cl` | -47.73 |
| 11 | `O=C(O)C(F)(F)F.[H][C@@]12CN(Cc3ccc(C)o3)CCC[C@]1(C(=O)O)CN(c1ncccn1)C2` | 33.43 |
| 12 | `CCn1cc(NC(=O)NCc2ccc(CN3CCOCC3)cc2)cn1` | 10.62 |
| 13 | `Cc1nc2n(n1)CC(NCc1nc(C)c(C)o1)CC2` (stereo not drawn) | -3.09 |
| 14 | `CCC(O)CNC(=O)c1coc(COc2ccc3sc(C)nc3c2)n1` (stereo not drawn) | -15.92 |
| 15 | `CCc1cc(CNC(=O)C2CCCN(C(=O)NCC(C)C)C2)[nH]n1` (stereo not drawn) | 6.947 |
| 16 | `[H][C@@]12CCN(C(=O)c3ccccc3)C[C@@]1([H])O[C@H](c1nnc(C3CC3)o1)C2` | -3.174 |
| 17 | `Cc1nc(C(C)(C)NCc2nnc(C(C)C)o2)sc1C` | 19.59 |
| 18 | `Cc1cnc(CN(C)C2CCN(CC(=O)N(C)c3nccs3)C2)o1` (stereo not drawn) | -68.71 |
| 19 | `CN(C)c1ncccc1CN1CCOC(C(=O)Nc2ccccc2)C1` (stereo not drawn) | 2.707 |
| 20 | `CCCS(=O)(=O)N1CCn2cc(CNc3ccccn3)nc2C1.O=C(O)C(F)(F)F` | 21.95 |
| 21 | `CC(=O)N1CCN(c2cc(C3CCNCC3)ccn2)CC1.Cl.Cl` | 15.88 |
| 22 | `[H][C@]12CC[C@]([H])(CN(C3Cc4ccccc4C3)C1)N(C(=O)CO)C2` | 16.52 |
| 23 | `CN(Cc1ccc(CCC(C)(C)O)cc1)Cc1cccnc1` | -10.36 |
| 24 | `COC(=O)C(c1cc(F)ccc1F)N(C)C(=O)c1cnc(C)cn1` (stereo not drawn) | -63.09 |
| 25 | `c1nc(N2CCN(Cc3nnnn3C3CC3)CC2)c2sccc2n1` | 11.7 |
| 26 | `Cc1cc(NC(=O)N2CCC[C@@H]2CO)nn1-c1ccccc1Cl` | 10.63 |
| 27 | `O=C(CC1CCN(c2cccnn2)CC1)NC1CCOCC1` | -7.69 |
| 28 | `CN1CCCN(C(C(=O)O)c2ccc3c(c2)OCO3)CC1` (stereo not drawn) | -25.2 |
| 29 | `CCC[C@H]1CN(c2nccc(OC)n2)C[C@@H]1NC(=O)C1CCOCC1` | 7.534 |
| 30 | `CC(C)COC(C)C(=O)NCCNC(=O)C(C)C` (stereo not drawn) | 14.21 |
| 31 | `Cc1nn(-c2ncccn2)c2c1C(c1cnn(C)c1C)SCC(=O)N2` (stereo not drawn) | 6.254 |
| 32 | `CC(C)Nc1ncc(-c2csc(NC(=O)C[C@H]3COCCN3)n2)cn1` | -71.65 |
| 33 | `CC(C)c1cc(NC(=O)c2ccc([S+]([O-])C(C)C)cc2)[nH]n1` (stereo not drawn) | -30.36 |
| 34 | `CN(C)CC(=O)N1CCc2sc(C(=O)N3CCOCC3)cc21` | -8.649 |
| 35 | `[H][C@@]12C[C@@H](OC)C[C@]1([H])CN(C(=O)c1ccc(C)s1)C2` | 41.56 |
| 36 | `CC(C)(C)c1nc(NS(=O)(=O)c2ccc(F)cc2)no1` | 1.534 |
| 37 | `Cc1ccc(Oc2ncccc2C(=O)N(C)CCCN(C)C)c(C)c1` | 7.054 |
| 38 | `COCC1c2c(cnn2C)CCN1C(=O)c1ccc2c(c1)OCO2` (stereo not drawn) | -61.86 |
| 39 | `Cc1ccc(-c2cnnc(NCC3CCOCC3)n2)o1` | -1.491 |
| 40 | `O=C(O)C(F)(F)F.[H][C@@]12COC[C@]1(COCc1csc(C)n1)CN(Cc1cc(C)on1)C2` | 2.349 |
| 41 | `CC(C)NC(=O)CN1CCCNCC1` | 41.89 |
| 42 | `O=C(CN1CCN(c2ncnc3c2CCNCC3)CC1)N1CCCCC1` | 9.051 |
| 43 | `CC(=O)c1cc(C(=O)NC2(c3ccccc3)CCC2)n(C)c1` | -5.278 |
| 44 | `c1cnc(N2CCCC(c3csc(Nc4cnccn4)n3)C2)nc1` (stereo not drawn) | 29.09 |
| 45 | `CC(C)c1n[nH]c(C2CN(C(=O)c3cc(C(N)=O)cs3)CCO2)n1` (stereo not drawn) | -12.94 |
| 46 | `CN(C)Cc1nn(C)c2c1CN(C(=O)Nc1ccc(F)cc1)C2` | 15.34 |
| 47 | `Brc1ccc(CNCc2nnc3n2CCC3)s1.Cl` | -13.1 |
| 48 | `CC1(C(=O)N2CCSCC2)CNCCO1` (stereo not drawn) | -31.42 |
| 49 | `c1cnc(N2CCC3(COCc4cnc(N5CCOCC5)nc43)C2)nc1` (stereo not drawn) | -8.831 |
| 50 | `CC1(C)CNC(=O)c2nc(CCN3CCOCC3)[nH]c2C1` | 11.82 |
| 51 | `Cn1cccc1CN1CCC2(CCCN(C(=O)c3cnccn3)C2)C1.O=C(O)C(F)(F)F` (stereo not drawn) | -18.3 |
| 52 | `NC(=O)c1cc2c(nc1Oc1ccccc1CN1CCCCC1)CCC2` | 23.43 |
| 53 | `COc1ccc2nnc(CCC(=O)Nc3nc4c(s3)CCC4)n2n1` | -54.85 |
| 54 | `Cc1noc(CCCC(=O)Nc2cc(C(F)(F)F)c[nH]c2=O)n1` | 10.45 |
| 55 | `CCn1cnnc1CCNC(=O)C1COc2ccc(OC)cc2C1` (stereo not drawn) | 7.48 |
| 56 | `CCc1noc(CN(C)Cc2ccc(N3CCCCC3)cc2)n1` | 20.21 |
| 57 | `Cc1ccc(C(=O)N2CCc3ncccc3C2)cc1N1CCNC1=O` | -10.13 |
| 58 | `c1cc(-c2c[nH]nc2C2CCCCC2)nc(N2CCCCCC2)n1` | 77.63 |
| 59 | `O=C(c1ccc(-c2cnco2)cc1)N1CCC(Nc2cccnn2)CC1` | -2.712 |
| 60 | `Cc1cnn(CC2CN(CCc3ccccn3)CCO2)c1` (stereo not drawn) | -8.826 |
| 61 | `Cc1sc2c(C3CCCN(C(C)C)C3)nc(C)n2c1C` (stereo not drawn) | 8.429 |
| 62 | `O=C(O)C(F)(F)F.O=C(O)C(F)(F)F.[H][C@@]12CCN(Cc3cc(C)on3)C[C@@]1([H])O[C@@H](C(=O)Nc1cccnc1C)C2` | -38.36 |
| 63 | `Cc1cc(-c2cnn(CCNC(=O)c3snnc3C)c2C2CC2)on1` | -3.996 |
| 64 | `CC(NC(=O)N1CCN(c2nccs2)CC1)c1nncn1C` (stereo not drawn) | -63.91 |
| 65 | `COCCN(C)C[C@H]1C[C@H](CO)CN(C(=O)c2ccn(C)c(=O)c2)C1` | 18.02 |
| 66 | `O=C(COc1ccccc1F)NCCC(O)c1ccco1` (stereo not drawn) | 18.66 |
| 67 | `CC(=O)N1CCCC(c2ccc(N3CCN(C)CC3)cn2)C1` (stereo not drawn) | -62.1 |
| 68 | `CN(C)C[C@@H]1CN(C(=O)c2cc(S(N)(=O)=O)ccc2F)C[C@@H]1CO` | 24.74 |
| 69 | `Cn1nccc1-c1ncc(-c2cc(C(=O)O)n(CC3CC3)c2)cn1` | -21.93 |
| 70 | `Cc1cn[nH]c1C1COCCN1Cc1ccsc1` (stereo not drawn) | -6.312 |
| 71 | `Cc1cc(Nc2cnccn2)nc(C2CCCN(CCO)C2)n1` (stereo not drawn) | 7.818 |
| 72 | `Cc1cnn(CC(C)NCc2csc(-c3cccs3)n2)c1` (stereo not drawn) | 3.673 |
| 73 | `COc1ccccc1N1CCN(C(=O)Cn2nccc2C)CC1(C)C` | -4.297 |
| 74 | `COC(=O)c1ccc(CNC2CC(=O)N(Cc3cccc(F)c3)C2)cc1` (stereo not drawn) | -23.7 |
| 75 | `CCOc1c(F)cccc1C(=O)N(C)CCc1ccccn1` | 1.553 |

For reference, 5 entries once more:

{"compound": "c1cc(-c2c[nH]nc2C2CCCCC2)nc(N2CCCCCC2)n1", "effect": 77.63}
{"compound": "CC1(C(=O)N2CCSCC2)CNCCO1", "stereo": "stereo not drawn", "effect": -31.42}
{"compound": "O=C(O)C(F)(F)F.[H][C@@]12CN(Cc3ccc(C)o3)CCC[C@]1(C(=O)O)CN(c1ncccn1)C2", "effect": 33.43}
{"compound": "Cc1cn[nH]c1C1COCCN1Cc1ccsc1", "stereo": "stereo not drawn", "effect": -6.312}
{"compound": "c1cnc(N2CCCC(c3csc(Nc4cnccn4)n3)C2)nc1", "stereo": "stereo not drawn", "effect": 29.09}